In US9427415B2, “Methods and compositions for modifying sensorial perception” (The Procter & Gamble Company, priority 2014, dated 2016):

Test system: TRPA1V1
Experiment: Intracellular calcium (Fluo-4, FLIPR) activation of TRPA1V1 cells (co-expressing TRPA1 and TRPV1) by GRAS compounds;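 further: HEK293 cells co-expressing TRPA1 and TRPV1, fluorescence read at 488/514 nm after baseline subtraction, recorded every 2 s over 10 min, ionomycin 10 µM and buffer as controls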
Assay type: cell-based, human
Conditions: Table 1(b); 1 mM or 100 μM (*); comparison of A1, V1 and A1V1 activation

SMILES	Remarks: effect of A1 and/or V1 on A1V1 response
CCCCCC1C(=O)CCC1CC(=O)OC (centres unmarked) [Hedione, Methyl dihydrojasmonate]	A1 and V1 additive
COC(=O)C1CCCCC1 [Methyl cyclohexanecarboxylate]	A1 and V1 additive
CC1=CC(=O)C(C(C)C)CC1 (centres unmarked) [Piperitone]	A1 and V1 additive
CC(C)C(=O)OCc1ccc2c(c1)OCO2 [Piperonyl isobutyrate]	A1 and V1 additive
CC(O)CCc1ccccc1 (centres unmarked) [4-Phenyl-2-butanol]	A1 and V1 additive
CC(=O)OCc1ccc2c(c1)OCO2 [Piperonyl acetate]	A1 and V1 additive
CC1COC(c2ccccc2)O1 (centres unmarked) [Benzaldehyde propylene glycol acetal]	A1 and V1 additive
COc1cc(C2OCC(C)O2)ccc1O (centres unmarked) [Vanillin propylene glycol acetal]	A1 and V1 additive
